These are yes or no findings as the source states them, for the method shown. Some entries that bind do so weakly or less than the wild type.
Target: human activated coagulation factor XI (FXIa) (human) (UniProt P03951)
Assay: solid phase binding assay, biotinylated AB023 on immobilized human FXIa

The chains behind the UniProt entries cited, without tags or fusion partners. Where a name states a change or a piece, a line headed by the entry shows the natural chain unless it says otherwise.
UniProt P03951: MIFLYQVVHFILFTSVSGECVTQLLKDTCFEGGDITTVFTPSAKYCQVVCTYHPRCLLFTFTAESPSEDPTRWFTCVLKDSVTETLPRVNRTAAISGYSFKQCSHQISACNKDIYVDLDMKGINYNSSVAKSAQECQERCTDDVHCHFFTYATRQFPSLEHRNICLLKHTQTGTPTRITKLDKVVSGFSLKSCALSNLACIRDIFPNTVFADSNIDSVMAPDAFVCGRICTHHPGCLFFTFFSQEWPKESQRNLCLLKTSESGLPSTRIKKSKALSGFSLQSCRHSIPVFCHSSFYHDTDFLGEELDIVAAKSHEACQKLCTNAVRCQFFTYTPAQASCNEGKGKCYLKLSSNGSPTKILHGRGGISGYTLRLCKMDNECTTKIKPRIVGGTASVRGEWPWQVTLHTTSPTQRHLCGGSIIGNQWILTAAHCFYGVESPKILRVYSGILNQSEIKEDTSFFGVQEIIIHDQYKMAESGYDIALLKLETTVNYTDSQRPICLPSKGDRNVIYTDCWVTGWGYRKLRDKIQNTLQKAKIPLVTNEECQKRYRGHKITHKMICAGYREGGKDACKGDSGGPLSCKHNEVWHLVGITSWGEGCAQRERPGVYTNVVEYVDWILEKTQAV

binding: binds
B1: AB023, humanized anti-FXI monoclonal antibody (variant VH3/Vκ3, clone 3G3) (antibody, V domains shown)
VH: QVQLQESGPGLVKPSETLSITCTVSGFSLTGYGIYWVRQPPGKGLEWLGMIWGDGRTDYNSALKSRVTISKDNSKSQVSLKLSSVTAADTARYYCARDYYGSKDYWGQGTTVTVSS
VL: DIQMTQSPSSLSASVGDRVTITCKASQDVSTAVAWYQQKPGKAPKLLIYLTSYRNTGVPDRFSGSGSGTDFTFTISSLQPEDIAVYYCQQHYKTPYSFGGGTKVEIKR
notes: Human IgG4 with S241P (Kabat) hinge modification, kappa light chain; also called A13023; A8023

Source: US20220089777A1 (ARONORA, published 2022)
